The list does not hold the whole screen: it is rich in T/C values a quarter to a half above the control, in often repeated tests (any T/C) and in doses without a T/C. Further doses and runs are listed elsewhere. T/C is the treated group as % of the vehicle group. Some entries give survivors of the animals treated and no T/C: the source holds a T/C of zero for them, seemingly a mark for toxic or unscored doses. Some doses without a T/C left all or most animals alive at the check, yet need not have been tolerated: survival well below the control is almost never listed, so the zero probably covers shortened survival too. Counts of survivors are from the toxicity check (mostly the fifth day) where no day follows; animals may have died later. Schedules are NCI's codes, read here as Q, the interval in days (D) or hours (H), X, the number of doses. Some schedule codes hold Z or #, which are not explained here. Where survival is the endpoint, this PubChem deposit counts one and a half times the control or more as active, and values a quarter to a half above the control carry no call in these data; other NCI protocols may use other cut-offs.
System: L1210 leukemia ip in BDF1 mice, survival T/C
Test: NCI In Vivo Anticancer Drug Screen. Data for tumor model L1210 Leukemia (intraperitoneal) in B6D2F1 (BDF1) mice
Settings: T/C endpoint: mean survival time, higher T/C = longer survival
[1] = dose: 200.0 mg/kg/injection, schedule: Q01DX009 (ip), vehicle: saline
[2] = dose: 400.0 mg/kg/injection, schedule: Q01DX009 (ip), vehicle: saline
[3] = dose: 400.0 mg/kg/injection, schedule: Q04DX003 (ip), vehicle: Klucel (hydroxypropylcellulose) (HPC)
[4] = dose: 400.0 mg/kg/injection, schedule: Q04DX003 (ip), vehicle: saline with Tween-80
[5] = dose: 200.0 mg/kg/injection, schedule: Q04DX003 (ip), vehicle: Klucel (hydroxypropylcellulose) (HPC)
[6] = dose: 60.0 mg/kg/injection, schedule: Q01DX Z (ip), vehicle: methylcellulose (MC)
[7] = dose: 400.0 mg/kg/injection, schedule: Q04DX003 (ip), vehicle: saline

Q: What does the source list for Cc1cn(C2CC(F)C(CO)O2)c(=O)[nH]c1=O (configuration not stated)?
A: T/C [1]: 129 % of control; T/C (dose: 216.0 mg/kg/injection, schedule: Q01DX009 (ip), vehicle: saline): 127 % of control; T/C [2]: 130 % of control; T/C (dose: 600.0 mg/kg/injection, schedule: Q01DX009 (ip), vehicle: saline): 135 % of control; T/C (dose: 1000.0 mg/kg/injection, schedule: Q01DX009 (ip), vehicle: saline): 127 % of control

Q: Which survivor count [3] does the source give for C=C1CC(c2ccccc2)(c2cccs2)OC1=O (configuration not stated) here?
A: 6 of 6

Q: What does the source list for COc1c(N)ccc(-c2ccc(N)c(OC)c2Cl)c1Cl?
A: survivor count (dose: 150.0 mg/kg/injection, schedule: Q04DX003 (ip), vehicle: saline with Tween-80): 5 of 6; survivor count (dose: 300.0 mg/kg/injection, schedule: Q04DX003 (ip), vehicle: saline with Tween-80): 1 of 6

Q: Which survivor count (dose: 40.0 mg/kg/injection, schedule: Q01DX009 (ip), vehicle: saline) does the source give for C=C1C(=O)OCC1(C(=O)OCC)C(=O)OCC here?
A: 1 of 6

Q: CC[N+](CC)(CC)CCC[N+](CC)(CC)CC was tested. Which survivor count (dose: 100.0 mg/kg/injection, schedule: Q01DX009 (ip), vehicle: water) did it give?
A: 6 of 6

Q: What about the survivor count (dose: 200.0 mg/kg/injection, schedule: Q01DX009 (ip), vehicle: water) of the same compound?
A: 1 of 6

Q: And the survivor count (dose: 400.0 mg/kg/injection, schedule: Q04DX003 (ip), vehicle: water)?
A: 2 of 6

Q: CCN1CCC(CNc2cc(C)nc(/N=C(\N)Nc3cc(Cl)cc(Cl)c3)n2)C1 (configuration not stated) was tested. Which survivor count (dose: 100.0 mg/kg/injection, schedule: Q04DX003 (ip), vehicle: saline with Tween-80) did it give?
A: 5 of 6

Q: And the survivor count (dose: 200.0 mg/kg/injection, schedule: Q04DX003 (ip), vehicle: saline with Tween-80)?
A: 1 of 6

Q: What about the survivor count [4] of the same compound?
A: 6 of 6

Q: Which survivor count (dose: 200.0 mg/kg/injection, schedule: Q01DX009 (ip), vehicle: saline with Tween-80) does the source give for c1ccc(Oc2ccc(-c3ccc(Oc4ccccc4)cc3)cc2)cc1 here?
A: 6 of 6

Q: For O=C(Nc1ccc(NC(=O)Nc2cc(C3=NCCN3)cc(C3=NCCN3)c2)cc1)Nc1cc(C2=NCCN2)cc(C2=NCCN2)c1, which survivor count (dose: 30.0 mg/kg/injection, schedule: Q01DX Z (ip), vehicle: saline) is on record?
A: 6 of 6

Q: And the survivor count (dose: 60.0 mg/kg/injection, schedule: Q01DX Z (ip), vehicle: saline)?
A: 3 of 6

Q: What about the survivor count (dose: 120.0 mg/kg/injection, schedule: Q01DX Z (ip), vehicle: saline) of the same compound?
A: 0 of 6

Q: What about the survivor count (dose: 240.0 mg/kg/injection, schedule: Q01DX Z (ip), vehicle: saline) of the same compound?
A: 0 of 6

Q: For c1ccc2c(c1)ccc1c2ccc2cccc[n+]21, which T/C (dose: 7.0 mg/kg/injection, schedule: Q01DX015 (ip), vehicle: saline) is on record?
A: 125 % of control

Q: And the T/C (dose: 10.0 mg/kg/injection, schedule: Q01DX015 (ip), vehicle: saline)?
A: 125 % of control

Q: And the survivor count (dose: 15.0 mg/kg/injection, schedule: Q01DX015 (ip), vehicle: saline)?
A: 4 of 6

Q: And the survivor count (dose: 50.0 mg/kg/injection, schedule: Q01DX001 (ip), vehicle: saline)?
A: 0 of 6

Q: And the survivor count (dose: 100.0 mg/kg/injection, schedule: Q01DX001 (ip), vehicle: saline)?
A: 0 of 6

Q: And the survivor count (dose: 200.0 mg/kg/injection, schedule: Q01DX001 (ip), vehicle: saline)?
A: 0 of 6

Q: What about the survivor count (dose: 400.0 mg/kg/injection, schedule: Q01DX001 (ip), vehicle: saline) of the same compound?
A: 0 of 6

Q: With NC1(C(=O)O)CCc2ccccc2C1 (configuration not stated) as the compound, how does the survivor count [5] read?
A: 6 of 6

Q: What does the source list for O=C(c1ccccc1)C1(c2ccccc2)CCP(c2ccccc2)(c2ccccc2)(c2ccccc2)O1 (configuration not stated)?
A: survivor count (dose: 75.0 mg/kg/injection, schedule: Q01DX001 (ip), vehicle: carboxymethylcellulose (CMC)): 3 of 6; survivor count (dose: 150.0 mg/kg/injection, schedule: Q01DX001 (ip), vehicle: carboxymethylcellulose (CMC)): 3 of 6; survivor count (dose: 300.0 mg/kg/injection, schedule: Q01DX001 (ip), vehicle: carboxymethylcellulose (CMC)): 0 of 6

Q: With O=C(CCCCCCCCC(=O)Nc1cccc(C2=NCCN2)c1)Nc1cccc(C2=NCCN2)c1 as the compound, how does the survivor count (dose: 15.0 mg/kg/injection, schedule: Q01DX Z (ip), vehicle: methylcellulose (MC)) read?
A: 0 of 6

Q: And the survivor count (dose: 30.0 mg/kg/injection, schedule: Q01DX Z (ip), vehicle: methylcellulose (MC))?
A: 0 of 6

Q: What about the survivor count [6] of the same compound?
A: 0 of 6

Q: For CC[n+]1cccc(NC(=O)c2ccc(NC(=O)c3ccc(C(=O)Nc4ccc(C(=O)Nc5ccc[n+](CC)c5)c(N)c4)cc3)cc2N)c1, which T/C (dose: 1.25 mg/kg/injection, schedule: Q01DX015 (ip), vehicle: other) is on record?
A: 133 % of control

Q: And the T/C (dose: 6.25 mg/kg/injection, schedule: Q01DX001 (ip), vehicle: other)?
A: 127 % of control

Q: And the T/C (dose: 12.5 mg/kg/injection, schedule: Q01DX001 (ip), vehicle: other)?
A: 148 % of control

Q: What about the T/C (dose: 13.0 mg/kg/injection, schedule: Q01DX015 (ip), vehicle: other) of the same compound?
A: 130 % of control

Q: What does the source list for CCN(CC)CCCC(C)NCCCN (configuration not stated)?
A: survivor count [2]: 0 of 6; survivor count [7]: 2 of 6

Q: For CCOP(=O)(OCC)Oc1cc(C)c(C#N)c(C)c1, which survivor count (dose: 75.0 mg/kg/injection, schedule: Q01DX001 (ip), vehicle: saline) is on record?
A: 2 of 6

Q: What about the survivor count (dose: 80.0 mg/kg/injection, schedule: Q01DX001 (ip), vehicle: saline) of the same compound?
A: 3 of 6

Q: What about the survivor count (dose: 150.0 mg/kg/injection, schedule: Q01DX001 (ip), vehicle: saline) of the same compound?
A: 0 of 6

Q: What about the survivor count (dose: 300.0 mg/kg/injection, schedule: Q01DX001 (ip), vehicle: saline) of the same compound?
A: 0 of 6

Q: Which survivor count (dose: 300.0 mg/kg/injection, schedule: Q01DX015 (ip), vehicle: saline) does the source give for OCCNCc1ccc2ccccc2c1 here?
A: 0 of 6

Q: Which results are given for COc1cccc2c1C(=O)c1c(O)c3c(c(O)c1C2=O)CC(O)(/C(C)=N/NC(=O)c1ccccc1)CC3OC1CC(N)C(O)C(C)O1 (configuration not stated)?
A: T/C (dose: 50.0 mg/kg/injection, schedule: Q04DX003 (ip), vehicle: water): 129 % of control; T/C (dose: 100.0 mg/kg/injection, schedule: Q04DX003 (ip), vehicle: water): 131 % of control; T/C (dose: 300.0 mg/kg/injection, schedule: Q04DX003 (ip), vehicle: water): 134 % of control

Q: Which results are given for CN1CCCCC1(Cc1ccccc1)Cc1ccccc1?
A: survivor count [1]: 3 of 6; survivor count [7]: 0 of 6

Q: Which survivor count [4] does the source give for CC1CC(C)(C)N=C(CCC2CCCCCC2=O)O1 (configuration not stated) here?
A: 3 of 6

Q: How did the survivor count [3] turn out when CN1C(=O)CN=C(c2ccccc2)c2cc(Cl)ccc21 was run?
A: 1 of 4

Q: Which results are given for CC(C)(C#N)N=NC(C)(C)C#N?
A: survivor count (dose: 100.0 mg/kg/injection, schedule: Q01DX009 (ip), vehicle: alcohol): 2 of 6; survivor count (dose: 200.0 mg/kg/injection, schedule: Q04DX003 (ip), vehicle: alcohol): 2 of 6

Q: How did the survivor count [6] turn out when O=C(Nc1ccccc1C1=NCCN1)c1ccc(C(=O)Nc2ccccc2C2=NCCN2)cc1 was run?
A: 6 of 6

Q: And the survivor count (dose: 500.0 mg/kg/injection, schedule: Q01DX Z (ip), vehicle: carboxymethylcellulose (CMC))?
A: 5 of 6

Q: What does the source list for CN(C)CCCC1(c2cccc3ccccc23)CCCN(C)C1=O (configuration not stated)?
A: survivor count (dose: 100.0 mg/kg/injection, schedule: Q04DX003 (ip), vehicle: Klucel (hydroxypropylcellulose) (HPC)): 0 of 6; survivor count [5]: 0 of 6; survivor count [3]: 0 of 6

Q: What does the source list for C1CC2CCC[N]3C2C(C1)[O][Pb]31[O]C2CCCC3CCC[N]1C32 (configuration not stated)?
A: survivor count (dose: 120.0 mg/kg/injection, schedule: Q01DX015 (ip), vehicle: carboxymethylcellulose (CMC)): 5 of 6; survivor count (dose: 240.0 mg/kg/injection, schedule: Q01DX015 (ip), vehicle: carboxymethylcellulose (CMC)): 0 of 6; survivor count (dose: 400.0 mg/kg/injection, schedule: Q01DX009 (ip), vehicle: Klucel (hydroxypropylcellulose) (HPC)): 1 of 6

— PubChem BioAssay AID248 (DTP/NCI, 2004)
